The values are deposited in ChEMBL (CHEMBL3988442, “University of Dundee, Small-Polar-MMV Screening Library” (2021)).

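Viability assay of Plasmodium falciparum sporozoites; the read-out is not stated. The concentration is filed as 10 mM, unlikely as a test dose, so the dose is not known. Direction is inferred from retests: higher values go with lower viability. Strong results were mostly tested again. Size under these conditions: about 34,000 compounds, about 280 of them at 50% or above in at least one test.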

Results are given as percent effect.
How 0% and 100% were set is not recorded. Most values in the screen are low, and negative values occur.
Compounds were drawn at random from those tested, without regard to their results.
Two or more numbers in one place are separate tests of the same structure; such repeats can differ widely.

With Cc1ccc(-c2nnc(CCC(=O)NCc3cn(C)nc3C)o2)s1 the screen gave -9.358%.
With CC(C)[C@H](N)C(=O)N1CCCC(C2=Nc3ccccc3S(=O)(=O)N2)C1.Cl (stereo partly specified) the screen gave 12%.
With CC(C)C(=O)NC1CCN(Cc2cccc3c2OCCO3)CC1 the screen gave -21.96%.
With [H][C@@]12COC[C@]1(COc1cccnc1)CN(C(=O)c1ccc(C)nc1)C2 the screen gave -7.771%.
With [H][C@]12C[C@H](CNC(=O)c3cccn3C)O[C@@]1([H])CN(C(=O)c1ccco1)C2 the screen gave 7.531%.
With CCN(C)c1ncnc2c1CCN(C(=O)N1CCCC1)CC2.O=C(O)C(F)(F)F the screen gave -4.87%.
With Cc1nn(C)c(Cl)c1S(=O)(=O)N(C)c1ccc(Cl)cn1 the screen gave -2.999%.
With Cn1cnc(-c2cc(C(=O)N3CCOCC3)c3ccccn23)c1 the screen gave -1.371%.
With Cc1cccc2[nH]c(C3CCN(C(=O)c4ccc[nH]4)CC3)nc12 the screen gave 0.08772%.
With Cc1ccc(-c2nc(CN3CCC(C(=O)N(C)C)CC3)cs2)o1 the screen gave 9.01% and 1.193% and 33.92%.
With O=C1COc2ccc(C(=O)NS(=O)(=O)c3cc(F)ccc3F)cc2N1 the screen gave 5.835%.
With CCCc1cc(=O)n(CC(N)=O)c(-n2nc(C)cc2C)n1 the screen gave 12.4%.
With COCCNc1ccc(CC2CCCN(Cc3c[nH]cn3)C2)nn1 (stereo unspecified) the screen gave -166.4%.
With c1ccc(-c2nc(CN3CCCC(Cn4cncn4)C3)co2)cc1 (stereo unspecified) the screen gave -18.62%.
With c1cc(CCN2CCC(c3n[nH]c(C4CC4)n3)CC2)ccn1 the screen gave 1.143%.
With Cc1nc(C)n(C2CCCN(C(=O)c3nc(C)n4ccccc34)C2)n1 (stereo unspecified) the screen gave -10.48%.
With COc1ccc(OCc2nc(C(=O)N3CC[C@H](O)[C@@H](O)C3)co2)cc1 the screen gave -5.765%.
With Cn1ccc(C(=O)NC2CCC23CCN(C(=O)c2ccnnc2)CC3)c1 (stereo unspecified) the screen gave 15.49%.
With COc1ccc(CNCc2cn(C)nc2C)cc1 the screen gave -4.88%.
With N[C@H]1CN(C(=O)c2ccc3[nH]c(=O)c(=O)[nH]c3c2)C[C@@H]1c1ccccc1 the screen gave 6.446%.
With Cc1ccc(NC(=O)C2CSCN2C(=O)c2cccnc2)c(C)c1 (stereo unspecified) the screen gave 4.005%.
With CCN1CCOC(CNCc2ccc(OCc3ccccn3)cc2)C1 (stereo unspecified) the screen gave 0.08937%.
With Cc1cc(C2CCCN2Cc2cc(=O)n(C)c(=O)n2C)no1 (stereo unspecified) the screen gave 1.14%.
With Cn1ccc(NC(=O)CN2CCC(Oc3cnccn3)CC2)n1 the screen gave -58.44%.
With COc1cccc(-c2cnc(CNC(C)(C)c3nc(C)cs3)o2)c1 the screen gave -1.754%.
With O=C(O)C(F)(F)F.O=C(O)C(F)(F)F.[H][C@]12C[C@@H](C(=O)Nc3cccnc3)CO[C@@]1([H])CCN(CCC)C2 the screen gave 4.216%.
With Cc1cc(C)n(-c2ccc(C(C)NS(=O)(=O)CCCS(C)(=O)=O)cc2)n1 (stereo unspecified) the screen gave 7.675%.
With CCN(Cc1nc(COC)no1)Cc1cc2ccc(F)cc2[nH]c1=O the screen gave -17.38%.
With CCOC1COC2(CCN(Cc3ccc4c(c3)OCO4)CC2)C1 (stereo unspecified) the screen gave -0.1023%.
With NC(=O)C1(c2cnccn2)CCCN1C(=O)Cc1ccsc1 (stereo unspecified) the screen gave 0.9362%.
With CN(C)C(=O)N1CC2(CCN(CC3CC3)CC2)c2cc(F)ccc21.O=C(O)C(F)(F)F the screen gave 16.6%.
With COc1ccnc(NC(=O)c2ccsc2)c1 the screen gave 10.26% and -53.81% and 29.66%.
With Cc1cnn(C2CCCN(C(=O)c3cnc4ccccc4n3)C2)c1 (stereo unspecified) the screen gave 8.32%.
With CCNC(=O)CN1CCOC(c2ccccc2C(F)(F)F)C1 (stereo unspecified) the screen gave -3.429%.
With O=C(O)C(F)(F)F.O=C(O)C(F)(F)F.[H][C@]12C[C@@H](Cn3cncn3)N(C)[C@@]1([H])CCN(Cc1cccc(C#N)c1)C2 the screen gave -4.059%.
With Cc1cc(-c2ccc(=O)n(CCNC(=O)C3CCC3)n2)c(C)o1 the screen gave 13%.
With CCCc1n[nH]c(C2CN(CC(=O)N(C)Cc3ccco3)CCO2)n1 (stereo unspecified) the screen gave -1.775%.
With Cc1cc(C(=O)N2CCCC2c2noc(C(C)C)n2)c(C)o1 (stereo unspecified) the screen gave -2.592%.
With CN(CCC(=O)N1CCCC(Cc2cccnc2)C1)Cc1cccnc1 (stereo unspecified) the screen gave -7.866%.
With [H][C@@]12CCCCN(C)[C@]1([H])[C@@H](c1ccccc1)CCN2S(=O)(=O)N(CC)CC the screen gave -1.936%.
With COc1ncnc(N(C)C)c1NC(=O)Cc1c[nH]c2ccc(F)cc12 the screen gave 2.176%.
With CC(C)NC(=O)c1sc2ccccc2c1[C@H]1CC[C@H](CN)CC1.Cl the screen gave 10.68%.
With CCCn1ccnc1CN1CCCC1c1cccc(-n2ccnc2)n1 (stereo unspecified) the screen gave 3.839%.
With [H][C@@]12CN(C(=O)c3cnccn3)C[C@]1([H])C(=O)N(Cc1csc(C)n1)C2 the screen gave 1.852%.
With CC(=O)N1CCC(Cc2cnc(-c3c(C)n[nH]c3C)cn2)C1 (stereo unspecified) the screen gave -11.42%.
With Cn1cc(-c2ncnc3c2CCN(C(=O)N2CCOCC2)CC3)cn1 the screen gave -3.23%.
With O=c1ccn([C@H]2CCN(Cc3ncc[nH]3)CC[C@@H]2O)c(=O)[nH]1 the screen gave -16.91%.

For reference, 5 entries once more:

structure,Percent Effect
COc1ccc(CNCc2cn(C)nc2C)cc1,-4.88%
Cc1nn(C)c(Cl)c1S(=O)(=O)N(C)c1ccc(Cl)cn1,-2.999%
O=c1ccn([C@H]2CCN(Cc3ncc[nH]3)CC[C@@H]2O)c(=O)[nH]1,-16.91%
CCOC1COC2(CCN(Cc3ccc4c(c3)OCO4)CC2)C1 (stereo unspecified),-0.1023%
[H][C@@]12CN(C(=O)c3cnccn3)C[C@]1([H])C(=O)N(Cc1csc(C)n1)C2,1.852%